Assay results from PubChem BioAssay AID1794844 (National Center for Advancing Translational Sciences (NCATS), 2023).
Screen size: about 2,800 compounds; fewer than 10 were called active. Roughly 7% stayed inconclusive and do not appear here. Calls come from the whole dose curve; as a rule, active = well fitted inhibition curve with a large enough effect; inconclusive = small, poorly fitted or top-dose-only effect; inactive = no such curve, though single readings can be large or run the other way. The list shows a part of the results.

The chains behind the UniProt entries cited, without tags or fusion partners. Where a name states a change or a piece, a line headed by the entry shows the natural chain unless it says otherwise.
UniProt C7C422: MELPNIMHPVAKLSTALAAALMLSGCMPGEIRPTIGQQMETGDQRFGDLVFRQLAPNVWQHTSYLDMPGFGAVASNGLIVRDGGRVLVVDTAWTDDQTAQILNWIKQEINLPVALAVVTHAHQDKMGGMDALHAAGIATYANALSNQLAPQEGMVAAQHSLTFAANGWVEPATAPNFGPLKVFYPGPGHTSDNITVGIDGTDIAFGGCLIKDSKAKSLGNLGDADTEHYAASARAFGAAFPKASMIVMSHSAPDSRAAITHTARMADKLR

Molecular target: Metallo-beta-lactamase type 2 (Klebsiella pneumoniae) (UniProt C7C422)
Assay: qHTS to identify inhibitors of the New Delhi Metallo-beta-lactamase (NDM): Nitrocefin screen against the machine-based learning selections. Note: % of control where 0% means no effect.
Conditions: NDM-1 enzyme, nitrocefin hydrolysis, absorbance 485 nm; activity, negative = inhibition: at the top concentration
Summary of the method: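 Hydrolysis by 2 nM NDM-1 was followed by absorbance after >30 min compound preincubation in HEPES pH 7.0 buffer with 1 uM Zn2SO4. For nitrocefin (16.7 uM, 15 min, 485 nm) and meropenem (50 uM, 30 min, 300 nm), each substrate ran on separate plates.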

activity, negative = inhibition, inactive:
OC(c1nc(Nc2ccc(Oc3ccccc3)cc2)n[nH]1)C1CC1 (stereo unspecified) -1.1% [at 57.5 µM]
CCCc1cc(C(=O)N[C@@H]2COCC[C@H]2Oc2ccc(C(=O)O)cc2)n[nH]1 -3.33%
NC(=O)C1CCC(=O)N1C1CCNCC1 (stereo unspecified) -0.167%
O=C(O)c1cccc(CN2CCN(c3ccc4nccn4n3)CC2)n1 -14.8%
CCCCCC(=O)Nc1nc2c(s1)C[C@@H]1[C@](C)(CO)[C@H](O)CC[C@@]1(C)[C@@H]2CC(=O)NCc1ccccc1 2.07%
Cn1nc(C(=O)Nc2ccc3c(c2)C(=O)N2CCC[C@H]2C(=O)N3)c2ccccc21 1.02%
CC(C)C1CN(C(=O)c2ccccc2-c2ncc[nH]2)CCC(=O)N1CC1CC1 (stereo unspecified) 5.2%
CC[C@H]1CN(C(C)=O)CC[C@H]1CC(=O)Nc1ccccc1 -10.5% [at 76.7 µM]
CC1=C[C@@H](CNC(=O)c2ccc(F)cc2)[C@H](C(C)C)C[C@H]1CC(=O)N1CCN(C)CC1 8.05% [at 57.5 µM]
O=C1Nc2ccc(/C=C/c3ccccc3)cc2C(=O)N2CC[C@H](NS(=O)(=O)c3cccs3)[C@@H]12 4.39%
COc1cncc([C@@H](NC(=O)Cc2cn3ccsc3n2)C2CC(O)C2)c1 (stereo partly specified) -2.36%
CN(C)S(=O)(=O)CCCN1CC[C@@H](NC(=O)c2ccccn2)[C@H](O)C1 -0.714%
O=C(Nc1ccc(Oc2ccccc2)cc1)N[C@H]1CO[C@H]2[C@@H]1OC[C@H]2OC(=O)Nc1cccc(C(F)(F)F)c1 242%
Cc1ccc(S(=O)(=O)N[C@H]2CO[C@H]3[C@@H]2OC[C@H]3OCC(N)=O)cc1 -3.58% [at 57.5 µM]
CCOC(=O)c1cccc(NC(=O)O[C@@H]2CO[C@H]3[C@@H]2OC[C@@H]3n2nnnc2SC2CCCC2)c1 6.42%
COc1ccc(CN2C=C(C(=O)OCc3noc(-c4cccc(OC)c4)n3)C(C)=NS2(=O)=O)cc1 9.65%
O=C(Nc1ccsc1)N[C@H]1C[C@H]2C(=O)NC[C@@H](CCC(=O)N3CCCCC3)N2C1 -15.9% [at 57.5 µM]
COC(=O)[C@@H]1Cc2nc[nH]c2CN1C(C)C -11.1% [at 76.7 µM]
OC(CCc1ccccc1)C1CCN(Cc2nc(-c3ccccn3)no2)CC1 (stereo unspecified) -11.1%
O=C(NCCc1cnc[nH]1)C1CCN(C2CCCCC2)CC1 -9.13%
CCOC(=O)c1ccc(N2C(=O)[C@@H]3Cc4nc[nH]c4CN3C2=O)cc1 3.45% [at 57.5 µM]
Cc1cc(CN2CCC(CO)(Cc3ccccc3Cl)CC2)cc(C)c1O -0.358%
COc1ccc(C(=O)NCc2nnc3ccc(-c4ccccc4)nn23)c(OC)n1 9.23%
O=C(CN1CC2CC(C1)[C@H]1CCCC(=O)N1C2)Nc1ccccc1 (stereo partly specified) -0.533%
O=C(c1ccccc1)N1C[C@@H]2OCC(=O)N(c3ccccc3)[C@@H]2C1 -4.96% [at 57.5 µM]
O=C1Nc2ccc(-c3cccc(C(F)(F)F)c3)cc2C(=O)N2CCN(C(=O)[C@@H]3CSCN3)C[C@H]12 -1.58%
O=[S+]([O-])(NCC1CN(Cc2ccc(O)cc2)CC12CN(c1ccccc1)C2)c1ccccc1 (stereo unspecified) 2.73%
CC(=O)N1CCN(C(=O)C[C@@H]2C[C@@H](C(C)C)[C@H](CNC(=O)Nc3cccc(F)c3)C=C2C)CC1 -1.02%
O=C(NC1CCCCC1)N[C@H]1CO[C@H]2[C@@H]1OC[C@@H]2n1cc(-c2ccccc2)nn1 2.09% [at 57.5 µM]
Oc1ccccc1CN1CCNc2cnc(-c3ccccc3)cc2C1 -1.68% [at 57.5 µM]
CC(=O)Nc1cccc(-c2ccc3ncn(-c4cccnc4)c(=O)c3n2)c1 2.6% [at 57.5 µM]
CC(C)c1ccc(C(=O)N2CCCC[C@H](N(C)C)C2)c(=O)n1C -5.46%
Cn1ccnc1CN[C@@H]1C[C@H](CO)[C@@H](O)[C@H]1O -2.53% [at 76.7 µM]
CC[C@H]1CN(C(=O)C(C)(C)C)CC[C@H]1CC(=O)NCCSC 1.16% [at 57.5 µM]
COc1ccc(C(=O)N[C@H]2C[C@H]3C(=O)Nc4ccccc4C(=O)N3C2)cc1 2.8% [at 57.5 µM]
O=C(Cc1ccncc1)N1CCC2(CC1)NCCc1c2[nH]c2ccccc12 -1.63%
CN(Cc1ccccc1)Cc1cn([C@H]2CO[C@H]3[C@@H]2OC[C@@H]3NC(=O)NCc2ccccc2)nn1 -6.32%
CC1=C[C@@H](CNC(=O)Cc2ccccc2)[C@H](C(C)C)C[C@H]1Cc1nc2ccncc2[nH]1 18% [at 57.5 µM]
CCC[C@H]1C[C@H]1C(=O)N1CCC2(CCC(=O)N(CC(N)=O)C2)CC1 2.24%
CCc1cc(N2CCOC(c3ccc4cc(OC)ccc4c3)C2)nc(C)n1 (stereo unspecified) -9.13%
CN(Cc1cc(C[C@@H]2C[C@H](NC(=O)COc3ccccc3)C2(C)C)no1)c1ccccc1 -1.77% [at 57.5 µM]
CCCC1=Nc2cc(C(=O)NCCc3ccc(OC)c(OC)c3)ccc2Sc2ccccc21 3.35%
CN(C)c1ccc(NC(=S)N[C@H]2CO[C@H]3[C@@H]2OC[C@H]3OC(=O)Nc2cccc3ccccc23)cc1 5.22%
Cc1noc2c(-c3cccc(CO)c3)cc(-c3ccc(F)cc3)nc12 296% [at 57.5 µM]
CCOCc1nc(C2CCCN(C(=O)c3ccc(C)cc3)C2)no1 (stereo unspecified) 2.9%
C=CCN(Cc1cnc(-c2cccc(C)c2)nc1)Cc1ccccn1 -4.13%
CC(C)C1c2nccn2CCCN1C(=O)c1ccc(Cn2cncn2)o1 (stereo unspecified) -2.21%
Cc1ccc2[nH]c(CCCn3cc(-c4nccn4C)nn3)nc2c1C -10.3%
Cc1ccc(S(=O)(=O)Cc2noc([C@@H]3C[C@@H](O)CN3Cc3ccc(S(C)(=O)=O)cc3)n2)cc1 1.37%
CNS(=O)(=O)c1ccc(C2CC(=O)Nc3cc(O)c(OC)cc32)cc1 (stereo unspecified) -2.45%
Cc1ccc2c(C)c(C(=O)N3CC(OCc4ccccc4F)C3)oc2c1 3.3%
O=C1Nc2ccccc2CC12CCN(Cc1cccnc1)CC2 2.71% [at 57.5 µM]
CC(=O)N[C@@H]1C[C@H](Cc2ccccc2)O[C@H](c2c(C)nc3sccn23)C1 8.09%
CC(C(=O)N1CCCC1)N1CCC2(CCC(=O)N(CCO)C2)CC1 (stereo unspecified) -9%
COc1ccc(CN2C(=O)COC[C@@H]2[C@H](O)c2ccc(NC(=O)CC(C)(C)C)cc2)cc1 -1.63%
CCN1C(=O)CCc2cc(NC(=O)c3ccc(C(C)C)cc3)ccc21 -0.776%
NC(=O)c1nc(CNC(=O)CC(c2ccccc2)c2cccc(Cl)c2)no1 (stereo unspecified) 8.35%
OCc1ccc(CN2C[C@H](O)C[C@H]2c2nc(-c3ccc(F)cc3)no2)o1 -19.1% [at 57.5 µM]
COc1ccc(NC(=O)N[C@H]2CO[C@H]3[C@@H]2OC[C@@H]3n2nnnc2-c2ccc3c(c2)OCO3)cc1 -0.56%
COc1cccc(NC(=O)CCc2ccc3c(c2)CN(S(C)(=O)=O)CCO3)c1 -4.72%
COC[C@H]1C[C@@H](NC(=O)c2cc(C(C)(C)C)oc2C)[C@H](O)[C@@H]1O -10.4% [at 57.5 µM]
Cc1ncsc1C(=O)N1CCCC(c2ccc(C(=O)O)cc2)C1 (stereo unspecified) -5.21%
NC(=O)CN1CCC2(CC1)CCN(C(=O)Cc1cnc[nH]1)CC2CO (stereo unspecified) 0.625%
O=C(COc1ccccc1)N[C@H]1CO[C@H]2[C@@H]1OC[C@@H]2n1nnnc1Oc1ccc2c(c1)OCO2 -1.96%
O=C(O)c1ccnc(-c2ccnc(NCCCN3CCCC(O)C3)n2)c1 (stereo unspecified) -7.43%
OCC#Cc1ccc(CN2CCC3(CCNCC3)C2)cc1 -12.7%
COc1ccc(-c2cn3c(n2)CO[C@@H](CNCc2ccc(Cl)cc2)C3)cc1 0.106% [at 57.5 µM]
COc1ccc(-c2cnc3[nH]cc(CC(=O)Nc4ccncc4)c3c2)cc1 42.4% [at 57.5 µM]
O=C(NCc1ccccc1)O[C@H]1COCCN(c2nc3ccccc3o2)C1 -7.44% [at 57.5 µM]
O=C(COc1ccccc1Cl)N1CCCC(O)(CN2CCCC2)C1 (stereo unspecified) 0.384%
O=C(Cn1nccn1)NC1CC(c2cc(N3CCC(O)C3)ncn2)C1 (stereo unspecified) -4.11%
O=C1CCCCC(CNC(=O)c2cc(F)ccc2F)N1 (stereo unspecified) 5.23%
CC(=O)N[C@H]1CC[C@]2(C)CC[C@@H](C(C)C(=O)NC3CCCC3)[C@H](O)[C@H]2[C@@H]1C (stereo partly specified) -8.9% [at 57.5 µM]
CCCCNC(=O)c1cccc(CN2C(=O)CC(c3ccccc3C)C(C(=O)OCC)=C2C)c1 (stereo unspecified) 5.52%
CCCN1C(=O)Cc2ccccc2C1C(=O)NCc1cccc(C)c1 (stereo unspecified) 2.07%
COc1ccc(CN2C(=O)[C@@H]3C[C@@H](O)CN3C3(CN(C4CCC4)C3)C2=O)cc1 14.3% [at 57.5 µM]
COc1ccc(C(=O)N[C@H]2CO[C@H]3[C@@H]2OC[C@@H]3n2cc(CN(C)Cc3ccccc3)nn2)cc1 -0.996%
CC1(C(=O)NCCCn2ccnc2)CCCc2cnc(Nc3ccccc3)nc21 (stereo unspecified) -5.13% [at 57.5 µM]
NC(=O)[C@H](Cc1ccc(O)cc1)NC(=O)C1=C[C@@H](NC(=O)Nc2ccc(OC(F)(F)F)cc2)[C@@H](O)[C@H](O)C1 3.87%
CN1C[C@@H](NS(=O)(=O)c2ccc(Cl)cc2)C[C@H]1c1nc(-c2ccc(F)cc2)no1 -10.1%
CC(C)(C)c1ccc(C(=O)Nc2nc3c(s2)C[C@@H]2[C@](C)(CO)[C@H](O)CC[C@@]2(C)[C@@H]3CC(=O)NC2CC2)cc1 -10.8%
O=C1Cc2c(-c3cccc4ccccc34)n[nH]c2CN1CCc1ccncc1 0.804% [at 57.5 µM]
CC(=O)NC[C@@H]1C=C(C)[C@H](CC(=O)N2CCCC2)C[C@H]1C(C)C 1.44% [at 57.5 µM]
COc1ccc(CN(Cc2ccc(OC)cc2)[C@@H]2CO[C@H](CNC(=O)CC(C)(C)C)[C@H]2O)cc1 1.54%
CC1(C)C[C@H](NC(=O)c2ccccc2)[C@@]2(CCC(=O)NCc3cccnc3)CC[C@](C)(O)C[C@@H]12 -5.46%
CCC(NC(=O)c1cc(Cn2ccc3ccccc32)[nH]n1)c1ncccc1C (stereo unspecified) -0.46%
O=C([C@H]1C[C@@H](O)[C@H](O)[C@@H]2N=C(Nc3ccc(Cl)cc3)S[C@@H]21)N1CCOCC1 -0.866% [at 57.5 µM]
CC(C)(O)C#Cc1ccc(C(=O)N2CCC(O)(c3ccccn3)CC2)cc1 -4.87%
CN1C[C@H](C(=O)NCc2ccccc2)C[C@H]1c1cccc(C(F)(F)F)c1 7.22% [at 57.5 µM]
COc1cc(CNC(=O)CCC2CCN(S(=O)(=O)c3ccccc3)CC2)cc(OC)c1 -10.9%
COCCNc1ncccc1-c1cc(-c2ccccc2)nc2c(C)noc12 2.72% [at 57.5 µM]

Entries listed so far that have a halogen:
activity, negative = inhibition, inactive:
CC1=C[C@@H](CNC(=O)c2ccc(F)cc2)[C@H](C(C)C)C[C@H]1CC(=O)N1CCN(C)CC1 8.05% [at 57.5 µM]
O=C(Nc1ccc(Oc2ccccc2)cc1)N[C@H]1CO[C@H]2[C@@H]1OC[C@H]2OC(=O)Nc1cccc(C(F)(F)F)c1 242%
Cc1cc(CN2CCC(CO)(Cc3ccccc3Cl)CC2)cc(C)c1O -0.358%
O=C1Nc2ccc(-c3cccc(C(F)(F)F)c3)cc2C(=O)N2CCN(C(=O)[C@@H]3CSCN3)C[C@H]12 -1.58%
CC(=O)N1CCN(C(=O)C[C@@H]2C[C@@H](C(C)C)[C@H](CNC(=O)Nc3cccc(F)c3)C=C2C)CC1 -1.02%
Cc1noc2c(-c3cccc(CO)c3)cc(-c3ccc(F)cc3)nc12 296% [at 57.5 µM]
Cc1ccc2c(C)c(C(=O)N3CC(OCc4ccccc4F)C3)oc2c1 3.3%
NC(=O)c1nc(CNC(=O)CC(c2ccccc2)c2cccc(Cl)c2)no1 (stereo unspecified) 8.35%
OCc1ccc(CN2C[C@H](O)C[C@H]2c2nc(-c3ccc(F)cc3)no2)o1 -19.1% [at 57.5 µM]
COc1ccc(-c2cn3c(n2)CO[C@@H](CNCc2ccc(Cl)cc2)C3)cc1 0.106% [at 57.5 µM]
O=C(COc1ccccc1Cl)N1CCCC(O)(CN2CCCC2)C1 (stereo unspecified) 0.384%
O=C1CCCCC(CNC(=O)c2cc(F)ccc2F)N1 (stereo unspecified) 5.23%
NC(=O)[C@H](Cc1ccc(O)cc1)NC(=O)C1=C[C@@H](NC(=O)Nc2ccc(OC(F)(F)F)cc2)[C@@H](O)[C@H](O)C1 3.87%
CN1C[C@@H](NS(=O)(=O)c2ccc(Cl)cc2)C[C@H]1c1nc(-c2ccc(F)cc2)no1 -10.1%
O=C([C@H]1C[C@@H](O)[C@H](O)[C@@H]2N=C(Nc3ccc(Cl)cc3)S[C@@H]21)N1CCOCC1 -0.866% [at 57.5 µM]
CN1C[C@H](C(=O)NCc2ccccc2)C[C@H]1c1cccc(C(F)(F)F)c1 7.22% [at 57.5 µM]
